Source: PubChem BioAssay AID1259425 (University of Nebraska Medical Center, 2018)
The whole screen tested about 14,000 reagents; shown is a random part of them. Further read-outs or replicates are left out here. Not stated in the record: the time to read-out.

Test: 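Seek colon cancer weak points whose silencing resembles KSR1 loss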 (primary screen)
System: HCT116 human colon cancer cells
Reagent: siRNA pool against human genes, 50 nM siRNA
Detection: 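mRNA of six signature genes measured together by branched-DNA assay after 50 nM siRNA pool, blank removed, divided by geometric mean of two housekeeping genes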
Direction: BNIP3L mRNA: higher = more BNIP3L transcript after knockdown

For GDE1 (glycerophosphodiester phosphodiesterase 1) [SID364000257], what was measured?
BNIP3L mRNA, set 1: 0.0849

How did the screen score PPP1R3D (protein phosphatase 1 regulatory subunit 3D) [SID363997066]?
BNIP3L mRNA, set 1: 0.107

For ITGB1BP2 (integrin subunit beta 1 binding protein 2) [SID363998195], what was measured?
BNIP3L mRNA, set 1: 0.0807

For GPHRB (golgi pH regulator B) [SID364000041], how do the results read?
BNIP3L mRNA, set 1: 0.158

Which result is listed for RBM26 (RNA binding motif protein 26) [SID364002345]?
BNIP3L mRNA, set 1: 0.13

Which result is listed for ARPC1A (actin related protein 2/3 complex subunit 1A) [SID363997220]?
BNIP3L mRNA, set 1: 0.12

For TIMM50 (translocase of inner mitochondrial membrane 50) [SID364005243], how do the results read?
BNIP3L mRNA, set 1: 0.101

For KLHL7 (kelch like family member 7) [SID364001219], what does the deposit list?
BNIP3L mRNA, set 1: 0.073

What did the screen give for ATP5F1E (ATP synthase F1 subunit epsilon) [SID363997643]?
BNIP3L mRNA, set 1: 0.0787

What did the screen give for RNF130 (ring finger protein 130) [SID364001068]?
BNIP3L mRNA, set 1: 0.068

For ESPL1 (extra spindle pole bodies like 1, separase) [SID363998207], how do the results read?
BNIP3L mRNA, set 1: 0.0863

For FAM174C (family with sequence similarity 174 member C) [SID364000639], what does the deposit list?
BNIP3L mRNA, set 1: 0.186

With OR1J4 (olfactory receptor family 1 subfamily J member 4) [SID364005395], what was measured?
BNIP3L mRNA, set 1: 0.0913

For PPP1R15A (protein phosphatase 1 regulatory subunit 15A) [SID363998759], what was measured?
BNIP3L mRNA, set 1: 0.0537

What is on record for CNNM1 [SID364001619]?
BNIP3L mRNA, set 1: 0.114

For FBXW7 (F-box and WD repeat domain containing 7) [SID364000969], what does the deposit list?
BNIP3L mRNA, set 1: 0.134

What is on record for BCR (BCR activator of RhoGEF and GTPase) [SID363995316]?
BNIP3L mRNA, set 1: 0.0766

For FBXO25 (F-box protein 25) [SID363998112], what was measured?
BNIP3L mRNA, set 1: 0.0688

How did the screen score GINS2 (GINS complex subunit 2) [SID363999866]?
BNIP3L mRNA, set 1: 0.109

For DAG1 (dystroglycan 1) [SID363995377], what was measured?
BNIP3L mRNA, set 1: 0.0861

What did the screen give for NCALD (neurocalcin delta) [SID364003760]?
BNIP3L mRNA, set 1: 0.35

How did the screen score PAQR3 (progestin and adipoQ receptor family member 3) [SID364004899]?
BNIP3L mRNA, set 1: 0.12

For ZNF112 (zinc finger protein 112) [SID363998487], what was measured?
BNIP3L mRNA, set 1: 0.129

Which result is listed for HKDC1 (hexokinase domain containing 1) [SID364003263]?
BNIP3L mRNA, set 1: 0.164

With PDS5A (PDS5 cohesin associated factor A) [SID363999360], how do the results read?
BNIP3L mRNA, set 1: 0.115

Which result is listed for PACS1 (phosphofurin acidic cluster sorting protein 1) [SID364000717]?
BNIP3L mRNA, set 1: 0.0937

How did the screen score RPS2P45 (ribosomal protein S2 pseudogene 45) [SID364003196]?
BNIP3L mRNA, set 1: 0.174

How did the screen score TAAR8 (trace amine associated receptor 8) [SID364004438]?
BNIP3L mRNA, set 1: 0.132

Reformatted: 3 of the entries above
Target gene | PubChem SID | BNIP3L mRNA, set 1
RBM26 (RNA binding motif protein 26) | SID364002345 | 0.13
ARPC1A (actin related protein 2/3 complex subunit 1A) | SID363997220 | 0.12
TIMM50 (translocase of inner mitochondrial membrane 50) | SID364005243 | 0.101
